Measurements reported in PubChem BioAssay AID624297 (National Center for Advancing Translational Sciences (NCATS), 2012).
In all, about 340,000 compounds went through this assay and about 6,200 (1.8%) were called active. This list was built around the results that the source calls inconclusive (neither active nor inactive); the mix of calls is not that of the screen. Calls follow the shape of the dose curve; as a rule, active = well fitted activation curve with a large enough effect; inconclusive = small, poorly fitted or top-dose-only effect; inactive = no such curve, though single readings can be large or run the other way. Potencies beside an inconclusive call are fits to weak or partial responses and may not hold up.

Assay: A quantitative high throughput screen for small molecules that induce DNA re-replication in SW480 colon adenocarcinoma cells. Also: nearly all actives have a fitted effect of over 55% in size. As to re-replication activation: % of control where 0% means no effect.
Conditions: Hoechst DNA content imaging, 48 h; re-replication activation: at 46.1 µM (top of the series) unless noted
In short: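 First, 250 cells per well were seeded. Next, compound or vehicle (23 nL) was pinned in, plates sat 48 hr at 37 C. Finally Hoechst was added for 40 min before fluorescence scanning.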
Potency is read from the fitted curve at half-maximal effect.

Q: For `Cc1cc(C(=O)N/N=C/c2cccn2C)n[nH]1`, which Potency is on record?
A: inconclusive: 11.6 µM [activator, single point]

Q: Which “re-replication activation” value does the source give for `c1ccc2sc(-c3ccc4c(c3)OCO4)nc2c1` here?
A: inactive: 8.06%

Q: For `COc1ccc(CCN(C)C(=O)COc2ccc(C(=O)c3ccccc3)cc2)cc1OC`, which “re-replication activation” value is on record?
A: inactive: 1.91%

Q: With `Cc1cc(C)cc(NC(=S)NCCc2ccc(S(N)(=O)=O)cc2)c1` as the molecule, how does the “re-replication activation” value read?
A: inactive: -3.1%

Q: Which Potency does the source give for `Cc1ccc(NS(=O)(=O)c2ccc(NC(=O)CSc3ccc(Cl)cc3)cc2)c(C)c1` here?
A: inconclusive: 22.4 µM [activator, single point]

Q: Which Potency does the source give for `COc1ccc2nc3sc(C(=O)NCCCN4CCc5ccccc5C4)cc3cc2c1` here?
A: inconclusive: 29.1 µM [activator, single point]

Q: For `Cc1cccc(C2=NN(c3ccccc3)[C@@H](C(=O)N3CCOC3=O)[C@@H]2c2ccccc2)c1`, which Potency is on record?
A: active: 16.4 µM

Q: With `CC1CCCCN1C(=O)CSc1nc(C2CC2)nc2ccccc12` (stereo not given) as the molecule, how does the Potency read?
A: inconclusive: 29.1 µM [activator, single point]

Q: Which Potency does the source give for `O=C(CCC1N=C2c3ccccc3N=C(SCc3ccc(Cl)cc3)N2C1=O)NCc1ccco1` (stereo not given) here?
A: inconclusive: 25.9 µM [activator, single point]

Q: With `O=C(COC(=O)c1ccccc1C(=O)c1ccc(Cl)cc1)NC(c1ccccc1)c1ccccc1` as the molecule, how does the “re-replication activation” value read?
A: inactive: 2.11%

Q: For `CCOC(=O)N1CCC(NC(=O)CS(=O)(=O)Cc2nc(-c3cccc(Cl)c3)oc2C)CC1`, which Potency is on record?
A: inconclusive: 29.1 µM [activator, single point]

Q: For `CCOC(=O)c1c(NC(=O)CSc2nccc(=O)[nH]2)sc(C)c1C`, which Potency is on record?
A: inconclusive: 29.1 µM [activator, single point]

Q: For `CC(C)(C)c1ccc(C(=O)Nc2cccc([N+](=O)[O-])c2)cc1`, which “re-replication activation” value is on record?
A: inactive: -79.4%

Q: With `O=C(NCc1ccc(F)cc1)c1cnccn1` as the molecule, how does the Potency read?
A: inconclusive: 29.1 µM [activator, single point]

Q: With `COc1ccc(-c2oc(NC(=O)CCl)c(C#N)c2-c2ccc(OC)cc2)cc1` as the molecule, how does the Potency read?
A: inconclusive: 29.1 µM [activator, single point]

Q: For `C[C@H](NC(=O)N1CCn2c1nc1ccccc12)C(=O)NC1CCCCC1`, which Potency is on record?
A: inconclusive: 29.1 µM [activator, single point]

Q: Which Potency does the source give for `Clc1ccc(C2Nc3ccccc3-n3cccc32)cc1` (stereo not given) here?
A: inconclusive: 29.1 µM [activator, single point]

Q: With `COc1cc(NC(=O)COc2cc(C)cc3oc(=O)c(C)c(C)c23)cc(OC)c1OC` as the molecule, how does the Potency read?
A: inconclusive: 29.1 µM [activator, single point]

Q: For `CC(C)(C)OC(=O)NCc1ccc(CNC(=O)c2nc[nH]c2C(=O)NCc2ccccc2)cc1`, which Potency is on record?
A: inconclusive: 29.1 µM [activator, single point]

Q: Which “re-replication activation” value does the source give for `O=C1OCCC1Sc1nc2ccccc2c(=O)n1Cc1ccccc1` (stereo not given) here?
A: inactive: -3.34%

Q: Which “re-replication activation” value does the source give for `CCOC(=O)C(=N/O)/C(C)=N/NC(=O)C(=O)Nc1ccc(Cl)cc1` here?
A: inactive: -18%

Q: With `CCn1c(O)c(/C=C2\C=Nc3ccccc32)sc1=Nc1ccc(C)cc1` as the molecule, how does the “re-replication activation” value read?
A: inactive: -7.71%

Q: With `O=C1CC(N(CCc2ccccc2)C(=S)Nc2ccccc2)C(=O)N1c1ccc(Br)cc1` (stereo not given) as the molecule, how does the Potency read?
A: inconclusive: 20.6 µM [activator, single point]

Q: For `COCCn1c(SCc2cnc(-c3ccccc3)s2)nnc1-c1ccncc1`, which “re-replication activation” value is on record?
A: inactive: -3.87%

Q: Which “re-replication activation” value does the source give for `O=C(CCN=C1NS(=O)(=O)c2ccccc21)OCc1cccc(Cl)c1` here?
A: inactive: -3.93%

Q: For `Nc1nc(Br)c2ccccc2c1-c1ccc(F)cc1`, which Potency is on record?
A: inconclusive: 29.1 µM [activator, single point]

Q: For `O=C(O)c1nccnc1C(=O)NCc1csc2ccc(Cl)cc12`, which “re-replication activation” value is on record?
A: inactive: -4.96%

Q: For `NS(=O)(=O)c1ccc(CCNC(=O)C(=O)NCC2OCCN2S(=O)(=O)c2cc(F)ccc2F)cc1` (stereo not given), which “re-replication activation” value is on record?
A: inactive: 1.53%

Q: Which Potency does the source give for `NCC1CCN(c2nc3ccccc3c3c2CCCC3)CC1` here?
A: inconclusive: 18.4 µM [activator, single point]

Q: With `COCCCNC(=O)Cc1c(C)c2c(cc(C)c3c(C)c(C)oc32)oc1=O` as the molecule, how does the Potency read?
A: inconclusive: 5.8 µM [activator, full curve, poor fit]

Q: With `N#CCn1cnc2c(oc3ccccc32)c1=O` as the molecule, how does the re-replication activation read?
A: inconclusive: -26.5% [activator]

Q: With `COc1ccc(OC)c(NC(=O)CN2C(=O)C(C)N(c3ccc(C)cc3)C2=O)c1` (stereo not given) as the molecule, how does the Potency read?
A: inconclusive: 2.59 µM [activator, partial curve, poor fit]

Q: With `COC(=O)c1cc(C)sc1NC(=O)C1C2C=CC(CC2)C1C(=O)O` (stereo not given) as the molecule, how does the Potency read?
A: inconclusive: 29.1 µM [activator, partial curve, poor fit]

Q: With `Cn1c(C(=O)c2ccccc2[N+](=O)[O-])nc2ccccc21` as the molecule, how does the Potency read?
A: inconclusive: 0.58 µM [activator, single point]

Q: With `Cc1ccc(SCc2nnc(NC(=O)c3ccccc3)s2)cc1` as the molecule, how does the Potency read?
A: inconclusive: 18.4 µM [activator, single point]

Q: With `CCOc1ccc(-c2nnn(CC(=O)NCc3cccs3)n2)cc1` as the molecule, how does the Potency read?
A: inconclusive: 20.6 µM [activator, single point]

Q: With `CCOc1ccc(CN2CCN(Cc3cccc4c3OCO4)CC2CCO)cc1` (stereo not given) as the molecule, how does the “re-replication activation” value read?
A: inactive: -4.46%

Q: For `COc1ccc(C(c2c(O)ccc3ccccc23)N2CCOCC2)c(OC)c1` (stereo not given), which Potency is on record?
A: inconclusive: 29.1 µM [activator, single point]

Q: For `Cc1c(Cl)cccc1NC(=S)NC(=O)c1cncc(Br)c1`, which Potency is on record?
A: inconclusive: 8.2 µM [activator, partial curve, poor fit]

Q: Which Potency does the source give for `CN(C)CCNc1ncnc2c1sc1nc(N3CCOCC3)c3c(c12)CC(C)(C)SC3` here?
A: inconclusive: 3.66 µM [activator, full curve, poor fit]

Q: Which Potency does the source give for `COc1cc(S(=O)(=O)Nc2cc(C)cc(C)c2)ccc1F` here?
A: inconclusive: 29.1 µM [activator, single point]

Q: Which “re-replication activation” value does the source give for `COC(=O)c1ccc([N+](=O)[O-])c(CS(=O)(=O)c2ccc(Cl)cc2)c1` here?
A: inactive: 0.327%

Q: With `OC(CN1CCN(c2ccccc2)CC1)Cn1c2ccccc2c2ccccc21` (stereo not given) as the molecule, how does the “re-replication activation” value read?
A: inactive: 13.1%

Q: Which re-replication activation does the source give for `Cc1ccccc1OCC(O)CN(Cc1ccccc1O)C1CCCCC1` (stereo not given) here?
A: inactive: -11.3% [at 1.84 µM]

Q: For `COC(=O)c1c(CCl)noc1C(=O)NC(C)C`, which Potency is on record?
A: active: 20.6 µM

Q: Which Potency does the source give for `Cc1cccc(C)c1OCCOC(=O)c1cccc(S(=O)(=O)N2CCOCC2)c1` here?
A: inconclusive: 2.59 µM [activator, single point]

Q: For `COC(=O)C1CC(C(=O)OC)C2C(C(=O)OC)CC(C(=O)OC)C12` (stereo not given), which “re-replication activation” value is on record?
A: inactive: -2.92%

Q: Which Potency does the source give for `CN(C)CCCN1C(=O)c2cccc3c(Br)ccc(c23)C1=O` here?
A: inconclusive: 29.1 µM [activator, single point]

Q: Which Potency does the source give for `S=c1[nH]nc(-c2cc3c(s2)-c2ccccc2CC3)o1` here?
A: active: 8.2 µM

Q: With `O=C(C1CCCCC1)N1CCN(S(=O)(=O)c2ccc(Cl)cc2)CC1` as the molecule, how does the “re-replication activation” value read?
A: inactive: 14.3%

Q: With `NC(=O)c1ccsc1NC(=O)C1CCCN1S(=O)(=O)c1ccc(Cl)cc1` (stereo not given) as the molecule, how does the “re-replication activation” value read?
A: inactive: 0.843%

Q: Which Potency does the source give for `COC(=O)c1c(NC(=O)CSc2nnnn2-c2ccccc2)sc2c1CCC(C)C2` (stereo not given) here?
A: inconclusive: 18.4 µM [activator, partial curve, poor fit]

Q: With `COc1ccc(C2NCCc3c2[nH]c2ccccc32)cc1CN1CCc2cc(OC)c(OC)cc2C1C` (stereo not given) as the molecule, how does the Potency read?
A: inconclusive: 20.6 µM [activator, single point]

Q: With `C=C1CCN([C@@H](C)C(=O)OCc2ccc(C)cc2)S(=O)(=O)c2ccccc21` as the molecule, how does the Potency read?
A: inconclusive: 0.731 µM [activator, single point]

Q: With `COC(=O)C1=C(C)N(Cc2ccco2)C(=O)/C1=C\c1ccc([N+](=O)[O-])cc1` as the molecule, how does the Potency read?
A: inconclusive: 29.1 µM [activator, single point]

Q: Which Potency does the source give for `CCN(C(=O)CCN1C(=O)/C(=C/c2ccccc2)SC1=S)C1CCS(=O)(=O)C1` (stereo not given) here?
A: inconclusive: 23.1 µM [activator, single point]

Q: For `COc1ccc(N2CCC(CNC(=S)Nc3cc(C)cc(C)c3)C2)cc1` (stereo not given), which Potency is on record?
A: inconclusive: 18.4 µM [activator, single point]

Q: Which “re-replication activation” value does the source give for `CCn1c(O)c(/C=N/NC(=O)c2ccncc2)c(=O)n(CC)c1=S` here?
A: inactive: 3.37%

Q: For `COc1cccc(C(=O)NCCS(=O)(=O)N2CCCCC2)c1`, which “re-replication activation” value is on record?
A: inactive: -0.58%

Q: Which Potency does the source give for `Cc1ccc(S(=O)(=O)NN2C(=O)c3ccccc3NC2c2ccccn2)cc1` (stereo not given) here?
A: inconclusive: 18.4 µM [activator, partial curve, poor fit]

Q: Which Potency does the source give for `COc1ccc(N2C(=O)/C(=C\c3ccco3)N=C2SCC(N)=O)cc1Cl` here?
A: active: 18.4 µM

Q: With `CCOC(=O)c1c(NC(=S)NC(=O)c2ccc(Cn3cc(Cl)cn3)o2)sc2c1CCCCC2` as the molecule, how does the Potency read?
A: inconclusive: 17.8 µM [activator, single point]

Q: With `COc1ccc(C2=NN(C(=O)c3cccs3)C(c3ccc(OC)cc3)C2)cc1` (stereo not given) as the molecule, how does the Potency read?
A: inconclusive: 16.4 µM [activator, single point]

Q: With `O=S(=O)(c1cc(F)ccc1F)N1CCN(c2ncnc3ccccc23)CC1` as the molecule, how does the Potency read?
A: active: 18.4 µM

Q: For `O=C(NCCCCc1ccccc1)Nc1ccc(F)cc1F`, which Potency is on record?
A: inconclusive: 18.4 µM [activator, single point]

Q: For `C[n+]1c(/C=C/c2ccc(O)cc2)ccc2ccccc21`, which “re-replication activation” value is on record?
A: inactive: -0.86%

Q: For `O=[N+]([O-])c1cc(C(F)(F)F)ccc1NCCNC(=S)Nc1ccc(Cl)cc1`, which Potency is on record?
A: inconclusive: 23.1 µM [activator, single point]

Q: Which Potency does the source give for `C=CCOC(=O)C1=C(C)NC(SCC(N)=O)=C(C#N)C1c1cccs1` (stereo not given) here?
A: inconclusive: 29.1 µM [activator, partial curve, poor fit]

Q: With `C/C(=C\c1ccc(Br)cc1)C(=O)c1c(C)cc(C)[nH]c1=O` as the molecule, how does the Potency read?
A: inconclusive: 23.1 µM [activator, single point]

Q: Which Potency does the source give for `Cc1cc(OCC(=O)Nc2ccc(Br)cc2)cc2c1C(=O)CC(C)(C)O2` here?
A: inconclusive: 20.6 µM [activator, partial curve, poor fit]
